Experimental data reported in article PMC6152987.

By UniProt entry, the sequences of proteins in these tests, tags left out.
UniProt P08515, whole entry: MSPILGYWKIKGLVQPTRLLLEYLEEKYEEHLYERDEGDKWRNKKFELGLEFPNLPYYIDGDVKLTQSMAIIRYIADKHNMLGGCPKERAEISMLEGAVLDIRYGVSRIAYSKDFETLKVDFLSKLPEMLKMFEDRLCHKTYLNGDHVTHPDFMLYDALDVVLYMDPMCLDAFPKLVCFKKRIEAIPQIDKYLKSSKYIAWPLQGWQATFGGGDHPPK

Assays:
[1] = system: GST-CBF-1 (Neurospora crassa); experiment: EMSA; details: poly(dI-dC); 20 mM HEPES pH 7.9, 1 mM EDTA, 2 mM MgCl2, 10% glycerol, 20 uM ZnCl2, 0.1 ug poly(dI-dC), 3 ug protein in 20 uL, 30 min on ice; 4% native PAGE, 0.5x TBE, 4 C; recombinant protein; protein details: GST (N-terminal, pGEX-4T-1); label: 32P (5' by T4 PNK)
GST = GST (UniProt P08515); experiment: EMSA; details: poly(dI-dC); 20 mM HEPES pH 7.9, 1 mM EDTA, 2 mM MgCl2, 10% glycerol, 20 uM ZnCl2, 0.1 ug poly(dI-dC), 3 ug protein in 20 uL, 30 min on ice; 4% native PAGE, 0.5x TBE, 4 C; recombinant protein; label: 32P (5' by T4 PNK)
[2] = system: GST-CBF-1 (Neurospora crassa); experiment: competition with a labelled probe; details: unlabeled competitor vs labeled C-box, lower protein concentration; 20 mM HEPES pH 7.9, 1 mM EDTA, 2 mM MgCl2, 10% glycerol, 20 uM ZnCl2, 0.1 ug poly(dI-dC), 3 ug protein in 20 uL, 30 min on ice; 4% native PAGE, 0.5x TBE, 4 C; recombinant protein; protein details: GST (N-terminal, pGEX-4T-1)

Sequence | binding result [1] | binding result (GST) | binding result [2]
CGTCCTGATGCCGCTGCAAGACCGATGACGCTGCAAAATTGAGATCTA (double strand) [frq C-box probe (ACF57/ACF58)] | binds | no binding | 
CGTCCTGATGCCGCTGCAAGACCGATGACGCTGCAAAATTGAGATCTA (double strand) [unlabeled C-box competitor] |  |  | binds

The exact form of at least one protein or probe is not confirmed. For part of these data: No signal at the amounts used counts as a negative.
